These are yes or no findings as the source states them, for the method shown. In cells and extracts the contact can be indirect.
Assays:
Experiment in all cases: FRET or BRET
[1] = target: RSV M (1–200) (respiratory syncytial virus (RSV)) (UniProt P0DOE7)
[2] = target: T1, Respiratory syncytial virus (RSV) matrix (M) protein, full-length M (1–256) (respiratory syncytial virus (RSV)) (UniProt P0DOE7)
T1 sequence: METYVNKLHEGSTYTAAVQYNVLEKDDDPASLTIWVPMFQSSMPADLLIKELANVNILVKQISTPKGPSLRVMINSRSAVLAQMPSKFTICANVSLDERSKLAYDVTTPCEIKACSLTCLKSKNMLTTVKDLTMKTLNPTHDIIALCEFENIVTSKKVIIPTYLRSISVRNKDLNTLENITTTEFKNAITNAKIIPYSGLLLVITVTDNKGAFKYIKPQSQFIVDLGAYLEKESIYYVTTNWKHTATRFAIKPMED

[3] = target: RSV M (110–183) (respiratory syncytial virus (RSV)) (UniProt P0DOE7)
[4] = target: RSV M (183–256) (respiratory syncytial virus (RSV)) (UniProt P0DOE7)

Substance	binding [1]	binding [2]	binding [3]	binding [4]
RSV M (1–200) (from UniProt P0DOE7 1-200) (domain or fragment)	no binding	no binding	–	–
RSV M (110–183) (from UniProt P0DOE7 110-183) (domain or fragment)	–	no binding	no binding	–
RSV M (183–256) (from UniProt P0DOE7 183-256) (domain or fragment)	–	no binding	–	no binding
